Patent US20140162960A1
These are yes or no findings as the source states them, for the method shown. In cells and extracts the contact can be indirect. Some entries that bind do so weakly or less than the wild type.

Protein sequences, listed by entry. Tags and fused reporters are not part of them. Residues count along the entry.
UniProt P28482, residues 2-360: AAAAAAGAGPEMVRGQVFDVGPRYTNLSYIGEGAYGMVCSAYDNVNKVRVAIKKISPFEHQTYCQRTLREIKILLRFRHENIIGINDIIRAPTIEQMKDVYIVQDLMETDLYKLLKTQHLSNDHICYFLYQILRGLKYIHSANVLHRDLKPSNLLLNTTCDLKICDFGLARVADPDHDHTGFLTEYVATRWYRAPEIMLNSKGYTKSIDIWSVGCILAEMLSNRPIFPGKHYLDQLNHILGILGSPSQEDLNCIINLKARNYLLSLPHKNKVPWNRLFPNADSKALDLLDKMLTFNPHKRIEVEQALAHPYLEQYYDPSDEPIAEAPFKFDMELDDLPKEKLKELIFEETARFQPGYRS
UniProt P27361, residues 2-379: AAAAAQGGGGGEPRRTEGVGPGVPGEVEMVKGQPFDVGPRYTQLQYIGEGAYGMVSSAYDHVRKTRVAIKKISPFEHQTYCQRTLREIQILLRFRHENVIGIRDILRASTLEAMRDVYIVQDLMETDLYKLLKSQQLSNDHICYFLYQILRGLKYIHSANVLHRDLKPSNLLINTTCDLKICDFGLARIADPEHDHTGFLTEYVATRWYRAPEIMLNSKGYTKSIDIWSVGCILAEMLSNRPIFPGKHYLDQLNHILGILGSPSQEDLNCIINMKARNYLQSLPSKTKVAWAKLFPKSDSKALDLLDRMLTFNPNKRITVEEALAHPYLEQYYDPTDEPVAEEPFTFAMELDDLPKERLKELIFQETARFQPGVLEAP
UniProt P46940, residues 2-1657: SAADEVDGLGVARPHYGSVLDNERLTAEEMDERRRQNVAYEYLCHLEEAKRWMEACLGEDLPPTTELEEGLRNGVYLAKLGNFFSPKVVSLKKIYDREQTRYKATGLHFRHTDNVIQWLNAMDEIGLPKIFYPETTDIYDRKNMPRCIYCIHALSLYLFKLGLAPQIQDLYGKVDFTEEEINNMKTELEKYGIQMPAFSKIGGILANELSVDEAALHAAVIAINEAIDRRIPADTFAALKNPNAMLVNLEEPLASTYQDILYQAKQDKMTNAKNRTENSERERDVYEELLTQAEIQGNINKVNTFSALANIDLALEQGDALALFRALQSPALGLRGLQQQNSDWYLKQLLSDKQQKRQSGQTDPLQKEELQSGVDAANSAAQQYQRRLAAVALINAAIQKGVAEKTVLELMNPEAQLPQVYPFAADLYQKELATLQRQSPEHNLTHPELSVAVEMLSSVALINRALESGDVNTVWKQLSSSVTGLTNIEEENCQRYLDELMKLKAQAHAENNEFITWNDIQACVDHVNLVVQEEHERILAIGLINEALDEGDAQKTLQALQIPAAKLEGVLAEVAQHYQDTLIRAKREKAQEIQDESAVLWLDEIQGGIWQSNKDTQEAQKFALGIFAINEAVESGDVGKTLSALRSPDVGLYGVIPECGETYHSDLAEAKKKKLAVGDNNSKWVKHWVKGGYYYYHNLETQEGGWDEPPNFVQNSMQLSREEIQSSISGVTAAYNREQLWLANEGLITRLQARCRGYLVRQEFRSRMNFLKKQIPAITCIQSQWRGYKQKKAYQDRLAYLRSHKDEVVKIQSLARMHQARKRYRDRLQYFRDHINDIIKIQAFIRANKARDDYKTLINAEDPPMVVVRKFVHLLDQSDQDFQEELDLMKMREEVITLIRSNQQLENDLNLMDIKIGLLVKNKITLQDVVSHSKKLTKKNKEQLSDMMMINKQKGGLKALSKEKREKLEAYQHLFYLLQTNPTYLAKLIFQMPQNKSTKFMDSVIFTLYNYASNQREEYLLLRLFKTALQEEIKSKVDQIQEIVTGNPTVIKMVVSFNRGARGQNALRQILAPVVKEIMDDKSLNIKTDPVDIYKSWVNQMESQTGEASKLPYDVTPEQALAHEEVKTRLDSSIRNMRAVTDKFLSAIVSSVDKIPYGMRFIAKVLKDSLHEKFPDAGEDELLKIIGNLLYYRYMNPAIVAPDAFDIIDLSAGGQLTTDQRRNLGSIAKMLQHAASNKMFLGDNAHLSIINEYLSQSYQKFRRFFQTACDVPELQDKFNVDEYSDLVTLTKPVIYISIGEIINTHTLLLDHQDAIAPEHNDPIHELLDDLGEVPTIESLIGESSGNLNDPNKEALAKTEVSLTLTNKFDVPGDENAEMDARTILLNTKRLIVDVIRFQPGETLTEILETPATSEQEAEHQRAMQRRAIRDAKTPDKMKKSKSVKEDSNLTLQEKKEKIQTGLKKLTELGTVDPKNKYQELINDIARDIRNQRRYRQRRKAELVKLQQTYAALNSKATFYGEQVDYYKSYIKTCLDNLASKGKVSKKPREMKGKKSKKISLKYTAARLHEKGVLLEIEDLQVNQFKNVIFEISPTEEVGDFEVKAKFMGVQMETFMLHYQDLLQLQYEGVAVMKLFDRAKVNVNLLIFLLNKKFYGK

Tests used:
[1] = target: ERK2 (extracellular signal-regulated kinase 2), endogenous (human) (UniProt P28482); experiment: co-immunoprecipitation, primary human cells and SK-Mel-28 melanoma cells
[2] = target: ERK1 (extracellular signal-regulated kinase 1), endogenous (human) (UniProt P27361); experiment: as above
[3] = target: ERK2 (extracellular signal-regulated kinase 2), endogenous (human) (UniProt P28482); experiment: co-immunoprecipitation with anti-IQGAP1 from cross-linked cell lysate, anti-Erk1/2 immunoblot
[4] = target: ERK1 (extracellular signal-regulated kinase 1), endogenous (human) (UniProt P27361); experiment: as above

Measured: binding

IQGAP1 (IQ motif containing GTPase activating protein 1), endogenous protein (from UniProt P46940 2-1657)
binds: all assays above
